Results from the supplement of paper PMC10849652.
This is one part of the list.

By UniProt entry, the sequences of proteins in these tests, tags left out. Where a name states a change or a piece, a line headed by the entry shows the natural chain unless it says otherwise.
UniProt P00403, whole entry, looked up: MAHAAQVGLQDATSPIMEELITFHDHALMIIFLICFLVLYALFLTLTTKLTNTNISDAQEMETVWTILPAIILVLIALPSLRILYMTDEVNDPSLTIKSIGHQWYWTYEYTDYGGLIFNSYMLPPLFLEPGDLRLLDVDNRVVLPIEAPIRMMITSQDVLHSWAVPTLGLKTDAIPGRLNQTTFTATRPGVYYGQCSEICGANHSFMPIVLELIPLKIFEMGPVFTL
UniProt O75431: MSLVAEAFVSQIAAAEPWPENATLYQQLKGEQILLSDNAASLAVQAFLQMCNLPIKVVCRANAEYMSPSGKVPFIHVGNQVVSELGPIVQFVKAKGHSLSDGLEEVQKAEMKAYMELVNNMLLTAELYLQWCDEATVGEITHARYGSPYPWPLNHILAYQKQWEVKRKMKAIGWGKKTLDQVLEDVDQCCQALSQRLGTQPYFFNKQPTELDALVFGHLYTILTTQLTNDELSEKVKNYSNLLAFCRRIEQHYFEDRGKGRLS
UniProt P42285: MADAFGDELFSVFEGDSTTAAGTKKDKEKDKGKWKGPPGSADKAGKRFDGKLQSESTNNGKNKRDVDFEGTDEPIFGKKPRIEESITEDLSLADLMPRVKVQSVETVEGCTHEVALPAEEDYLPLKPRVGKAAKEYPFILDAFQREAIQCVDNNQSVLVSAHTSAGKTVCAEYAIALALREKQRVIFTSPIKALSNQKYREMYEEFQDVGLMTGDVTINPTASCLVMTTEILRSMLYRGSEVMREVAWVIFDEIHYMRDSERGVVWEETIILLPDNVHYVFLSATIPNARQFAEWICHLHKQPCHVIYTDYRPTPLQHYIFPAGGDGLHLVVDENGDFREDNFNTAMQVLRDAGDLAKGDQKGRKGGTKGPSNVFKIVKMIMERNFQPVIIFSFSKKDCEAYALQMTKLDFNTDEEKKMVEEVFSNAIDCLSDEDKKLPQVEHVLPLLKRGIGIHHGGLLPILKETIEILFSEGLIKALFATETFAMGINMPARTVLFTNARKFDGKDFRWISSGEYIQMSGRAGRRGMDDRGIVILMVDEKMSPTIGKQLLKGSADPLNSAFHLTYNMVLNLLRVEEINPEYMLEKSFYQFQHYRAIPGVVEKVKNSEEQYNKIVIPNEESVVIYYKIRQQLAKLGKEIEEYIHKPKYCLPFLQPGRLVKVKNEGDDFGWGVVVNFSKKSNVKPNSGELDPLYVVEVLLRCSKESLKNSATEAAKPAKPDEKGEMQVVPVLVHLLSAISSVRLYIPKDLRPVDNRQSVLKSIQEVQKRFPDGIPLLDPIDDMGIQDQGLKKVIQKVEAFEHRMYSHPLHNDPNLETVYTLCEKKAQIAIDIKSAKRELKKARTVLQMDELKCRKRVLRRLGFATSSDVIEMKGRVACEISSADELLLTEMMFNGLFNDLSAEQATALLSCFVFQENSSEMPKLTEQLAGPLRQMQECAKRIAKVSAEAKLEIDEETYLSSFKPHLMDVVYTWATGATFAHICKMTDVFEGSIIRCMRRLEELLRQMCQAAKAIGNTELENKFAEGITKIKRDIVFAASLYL
UniProt Q13496: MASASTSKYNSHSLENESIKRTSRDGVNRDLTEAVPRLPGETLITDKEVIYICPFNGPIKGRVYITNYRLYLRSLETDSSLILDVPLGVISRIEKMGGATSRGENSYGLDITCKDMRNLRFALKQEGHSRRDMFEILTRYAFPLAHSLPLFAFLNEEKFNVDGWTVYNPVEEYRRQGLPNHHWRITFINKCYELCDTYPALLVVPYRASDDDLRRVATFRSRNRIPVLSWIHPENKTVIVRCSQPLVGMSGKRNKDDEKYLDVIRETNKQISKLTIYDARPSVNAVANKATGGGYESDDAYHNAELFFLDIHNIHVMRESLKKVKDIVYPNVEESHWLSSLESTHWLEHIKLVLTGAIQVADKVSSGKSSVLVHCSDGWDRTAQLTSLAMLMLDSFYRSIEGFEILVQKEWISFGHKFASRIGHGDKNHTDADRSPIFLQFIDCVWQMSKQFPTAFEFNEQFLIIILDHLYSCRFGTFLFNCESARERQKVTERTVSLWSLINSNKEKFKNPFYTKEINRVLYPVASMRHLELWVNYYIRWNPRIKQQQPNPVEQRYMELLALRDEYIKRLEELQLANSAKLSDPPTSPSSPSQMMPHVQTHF
UniProt Q13614, whole entry, looked up: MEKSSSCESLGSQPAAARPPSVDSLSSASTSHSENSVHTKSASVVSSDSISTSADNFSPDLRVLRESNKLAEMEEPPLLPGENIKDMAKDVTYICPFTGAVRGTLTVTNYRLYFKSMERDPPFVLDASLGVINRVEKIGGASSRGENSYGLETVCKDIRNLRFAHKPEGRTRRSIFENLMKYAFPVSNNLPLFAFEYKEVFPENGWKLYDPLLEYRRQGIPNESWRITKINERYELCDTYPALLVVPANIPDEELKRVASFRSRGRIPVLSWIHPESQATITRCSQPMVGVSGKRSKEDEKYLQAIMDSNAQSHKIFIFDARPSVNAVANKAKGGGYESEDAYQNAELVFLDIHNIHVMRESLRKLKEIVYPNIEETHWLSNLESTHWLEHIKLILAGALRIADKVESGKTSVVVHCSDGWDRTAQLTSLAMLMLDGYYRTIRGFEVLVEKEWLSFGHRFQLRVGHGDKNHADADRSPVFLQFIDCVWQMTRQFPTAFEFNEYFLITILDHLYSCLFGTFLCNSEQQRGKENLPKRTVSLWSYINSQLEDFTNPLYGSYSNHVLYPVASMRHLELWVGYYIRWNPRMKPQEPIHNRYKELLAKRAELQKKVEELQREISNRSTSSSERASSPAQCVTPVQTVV
UniProt P13995: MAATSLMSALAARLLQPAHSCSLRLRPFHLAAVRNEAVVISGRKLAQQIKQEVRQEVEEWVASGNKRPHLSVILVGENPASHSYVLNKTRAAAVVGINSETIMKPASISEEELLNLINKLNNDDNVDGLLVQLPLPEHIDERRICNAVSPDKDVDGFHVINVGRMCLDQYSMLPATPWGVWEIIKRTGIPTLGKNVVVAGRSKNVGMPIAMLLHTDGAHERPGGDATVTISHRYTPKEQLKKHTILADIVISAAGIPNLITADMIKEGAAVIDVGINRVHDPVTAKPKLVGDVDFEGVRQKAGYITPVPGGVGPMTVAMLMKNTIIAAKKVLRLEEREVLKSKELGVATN
UniProt Q765P7: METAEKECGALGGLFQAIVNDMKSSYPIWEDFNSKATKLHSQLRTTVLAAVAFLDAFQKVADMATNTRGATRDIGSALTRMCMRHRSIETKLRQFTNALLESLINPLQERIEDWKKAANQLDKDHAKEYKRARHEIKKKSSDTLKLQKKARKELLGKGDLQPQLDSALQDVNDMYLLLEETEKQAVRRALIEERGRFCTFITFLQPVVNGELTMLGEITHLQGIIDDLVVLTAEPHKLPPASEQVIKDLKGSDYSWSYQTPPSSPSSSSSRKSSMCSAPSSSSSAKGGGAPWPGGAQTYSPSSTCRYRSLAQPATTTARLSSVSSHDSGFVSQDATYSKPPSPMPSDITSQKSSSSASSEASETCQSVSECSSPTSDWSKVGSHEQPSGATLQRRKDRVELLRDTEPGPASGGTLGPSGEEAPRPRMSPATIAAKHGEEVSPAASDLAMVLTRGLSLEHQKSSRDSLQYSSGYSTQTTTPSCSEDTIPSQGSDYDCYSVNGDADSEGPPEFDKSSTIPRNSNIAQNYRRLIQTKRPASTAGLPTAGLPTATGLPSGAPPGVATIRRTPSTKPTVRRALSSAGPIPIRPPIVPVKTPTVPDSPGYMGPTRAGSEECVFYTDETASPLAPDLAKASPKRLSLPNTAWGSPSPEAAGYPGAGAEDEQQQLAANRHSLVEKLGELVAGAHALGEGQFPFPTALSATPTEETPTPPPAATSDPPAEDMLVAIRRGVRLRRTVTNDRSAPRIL
UniProt Q96DH6: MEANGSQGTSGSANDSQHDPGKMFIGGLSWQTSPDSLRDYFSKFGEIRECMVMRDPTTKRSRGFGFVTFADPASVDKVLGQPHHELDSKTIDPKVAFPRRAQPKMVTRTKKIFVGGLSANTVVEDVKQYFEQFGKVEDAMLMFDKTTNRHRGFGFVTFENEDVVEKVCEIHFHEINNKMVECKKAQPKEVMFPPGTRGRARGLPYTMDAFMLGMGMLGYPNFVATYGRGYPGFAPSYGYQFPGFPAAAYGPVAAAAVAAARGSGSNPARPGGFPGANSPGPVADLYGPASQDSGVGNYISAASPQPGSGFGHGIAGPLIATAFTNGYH
UniProt P49914: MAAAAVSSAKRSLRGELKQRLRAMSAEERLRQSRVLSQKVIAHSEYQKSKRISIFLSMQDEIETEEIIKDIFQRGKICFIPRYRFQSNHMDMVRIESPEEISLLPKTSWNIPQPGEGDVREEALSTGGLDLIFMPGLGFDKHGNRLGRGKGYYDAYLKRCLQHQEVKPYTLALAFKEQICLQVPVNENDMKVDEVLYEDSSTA
UniProt Q13505: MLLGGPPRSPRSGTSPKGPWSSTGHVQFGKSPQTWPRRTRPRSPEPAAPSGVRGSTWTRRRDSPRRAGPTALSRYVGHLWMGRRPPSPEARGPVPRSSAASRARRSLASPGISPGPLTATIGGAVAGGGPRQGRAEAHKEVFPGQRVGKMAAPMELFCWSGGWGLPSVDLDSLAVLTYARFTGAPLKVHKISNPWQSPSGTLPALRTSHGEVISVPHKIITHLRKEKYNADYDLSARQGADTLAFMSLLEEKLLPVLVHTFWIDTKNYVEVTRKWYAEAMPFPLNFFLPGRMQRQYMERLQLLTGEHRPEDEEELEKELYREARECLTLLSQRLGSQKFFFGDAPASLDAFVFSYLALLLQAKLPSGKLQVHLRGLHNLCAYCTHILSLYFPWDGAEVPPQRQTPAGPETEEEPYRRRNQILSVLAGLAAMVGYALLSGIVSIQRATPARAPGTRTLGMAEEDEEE
UniProt Q15390: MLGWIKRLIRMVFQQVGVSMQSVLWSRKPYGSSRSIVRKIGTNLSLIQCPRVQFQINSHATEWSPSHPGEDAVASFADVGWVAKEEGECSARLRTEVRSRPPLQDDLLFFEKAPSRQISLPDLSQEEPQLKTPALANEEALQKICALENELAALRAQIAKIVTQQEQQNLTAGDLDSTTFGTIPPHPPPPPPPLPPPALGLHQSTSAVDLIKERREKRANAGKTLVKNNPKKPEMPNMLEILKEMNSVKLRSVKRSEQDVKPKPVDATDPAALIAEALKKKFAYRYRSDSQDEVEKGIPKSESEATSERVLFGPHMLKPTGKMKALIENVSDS
UniProt Q9BTC8: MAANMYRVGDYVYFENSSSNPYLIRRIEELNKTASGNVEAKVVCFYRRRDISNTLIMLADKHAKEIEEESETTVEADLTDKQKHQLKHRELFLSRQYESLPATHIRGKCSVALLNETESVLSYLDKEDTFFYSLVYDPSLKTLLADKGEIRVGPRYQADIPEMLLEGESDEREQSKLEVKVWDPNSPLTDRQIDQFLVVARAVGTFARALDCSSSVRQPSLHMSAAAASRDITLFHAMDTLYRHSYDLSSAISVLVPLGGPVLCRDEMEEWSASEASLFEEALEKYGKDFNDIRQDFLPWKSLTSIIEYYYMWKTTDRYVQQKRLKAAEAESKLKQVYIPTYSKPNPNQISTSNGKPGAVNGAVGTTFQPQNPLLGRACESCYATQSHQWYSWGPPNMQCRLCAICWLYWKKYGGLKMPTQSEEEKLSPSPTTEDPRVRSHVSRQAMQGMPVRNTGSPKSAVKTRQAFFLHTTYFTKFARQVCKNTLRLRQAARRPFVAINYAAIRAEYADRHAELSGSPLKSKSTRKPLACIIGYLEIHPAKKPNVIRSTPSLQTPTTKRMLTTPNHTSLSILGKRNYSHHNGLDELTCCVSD
UniProt Q8NCE2: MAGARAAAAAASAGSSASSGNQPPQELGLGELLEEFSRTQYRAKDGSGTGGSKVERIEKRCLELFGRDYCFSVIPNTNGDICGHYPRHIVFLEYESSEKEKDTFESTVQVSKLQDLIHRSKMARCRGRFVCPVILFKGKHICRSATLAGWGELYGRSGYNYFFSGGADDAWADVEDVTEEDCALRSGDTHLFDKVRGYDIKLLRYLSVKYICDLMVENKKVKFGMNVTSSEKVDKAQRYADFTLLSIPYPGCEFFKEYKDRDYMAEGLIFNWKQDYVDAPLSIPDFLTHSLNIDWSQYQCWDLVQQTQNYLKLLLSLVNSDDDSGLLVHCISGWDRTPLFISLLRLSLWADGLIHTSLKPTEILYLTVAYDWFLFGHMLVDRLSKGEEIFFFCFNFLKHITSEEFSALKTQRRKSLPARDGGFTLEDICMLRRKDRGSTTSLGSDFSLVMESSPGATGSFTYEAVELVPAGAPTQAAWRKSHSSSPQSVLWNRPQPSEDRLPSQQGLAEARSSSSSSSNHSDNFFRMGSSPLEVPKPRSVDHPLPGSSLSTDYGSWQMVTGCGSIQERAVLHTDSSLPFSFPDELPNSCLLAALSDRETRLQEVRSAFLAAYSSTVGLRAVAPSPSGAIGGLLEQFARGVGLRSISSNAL

How the values were obtained:
Assay in all cases: log2 fold change, soluble protein after heating vs DMSO (PISA); higher = thermal stabilisation; K562 lysate, 10 uM; active = over 0.2 and 3.5 SD of the protein, either way, in both replicates (recomputed)
[1] = compound: CS(=O)(=O)CCNCc1ccc(-c2ccc3ncnc(Nc4ccc(OCc5cccc(F)c5)c(Cl)c4)c3c2)o1 [lapatinib]
Method in brief: (§1)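 Pellets of K562 cells were dounce-homogenised in PBS pH 7.4 with 1 mM MgCl2, and the crude extract was held at 1 mg/mL protein for a 30 min treatment with 10 μM compound. Aliquots were heated for 3 min over 48°C-58°C and pooled before NP-40 was added to 0.5% at 4°C. The supernatant from 21,000xg for 90 min was quantified by TMTpro 16plex LC-MS/MS with channel sums equalised. Values are reported from duplicates as log-two fold change in thermal stability relative to solvent controls.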

[2] = compound: CS(=O)(=O)N1CCN(Cc2cc3nc(-c4cccc5[nH]ncc45)nc(N4CCOCC4)c3s2)CC1 [pictilisib]
Method in brief: as §1

[3] = compound: C[C@@H](Oc1cc(-c2cnn(C3CCNCC3)c2)cnc1N)c1c(Cl)ccc(F)c1Cl [crizotinib]
Method in brief: as §1

[4] = compound: C[C@H](C1=CC=C(C=C1)C(=O)NC2=C3C=CNC3=NC=C2)N
Method in brief: as §1

[5] = compound: C[C@H](Nc1ncnc2nc[nH]c12)c1cc2cccc(Cl)c2c(=O)n1-c1ccccc1 [duvelisib]
Method in brief: as §1

[6] = compound: Cc1cc(Nc2cc(CN3CCOCC3)c3nc(C)c(Cc4ccc(Cl)cc4F)n3n2)n[nH]1 [gandotinib]
Method in brief: as §1

[7] = compound: Cc1cc(Nc2cc(N3CCN(C)CC3)nc(Sc3ccc(NC(=O)C4CC4)cc3)n2)n[nH]1 [tozasertib]
Method in brief: as §1

[8] = compound: Cc1ccc(-n2nc(C(C)(C)C)cc2NC(=O)Nc2ccc(OCCN3CCOCC3)c3ccccc23)cc1 [doramapimod]
Method in brief: as §1

[9] = compound: Cc1ccc(NC(=O)c2ccc(CN3CC[C@H](N(C)C)C3)c(C(F)(F)F)c2)cc1Nc1nccc(-c2cncnc2)n1 [bafetinib]
Method in brief: as §1

[10] = compound: Cc1cccc(CC(=O)N2CCc3c2ccc(-c2cn(C)c4ncnc(N)c24)c3F)n1
Method in brief: as §1

Measured: log2 fold change

MRPL54 (UniProt Q6P161)
inactive: [1] -0.043 | [2] 0.075 | [3] -0.064 | [4] 0.103 | [5] 0.03 | [6] -0.015 | [7] 0.054 | [8] 0.026 | [9] -0.071 | [10] -0.071

MT-CO2 (UniProt P00403)
inactive: [1] -0.114 | [2] -0.117 | [3] -0.02 | [4] 0.053 | [5] -0.026 | [6] -0.075 | [7] 0.015 | [8] -0.018 | [9] 0.038 | [10] -0.02

MTX2 (UniProt O75431)
inactive: [1] -0.006 | [2] -0.025 | [3] -0.036 | [4] 0.062 | [5] -0.037 | [6] -0.068 | [7] -0.024 | [8] -0.032 | [9] -0.05 | [10] -0.026

MRPS10 (UniProt P82664)
inactive: [1] 0.027 | [2] -0.018 | [3] -0.008 | [4] -0.066 | [5] 0.009 | [6] 0.032 | [7] -0.031 | [8] -0.016 | [9] -0.021 | [10] 0.026

MTREX (UniProt P42285)
inactive: [1] -0.007 | [2] -0.014 | [3] -0.021 | [4] -0.014 | [5] -0.011 | [6] 0.034 | [7] 0.001 | [8] 0.013 | [9] 0.009 | [10] 0.036

MRPL38 (UniProt Q96DV4)
inactive: [1] -0.078 | [2] -0.078 | [3] -0.064 | [4] 0.058 | [5] -0.016 | [6] -0.073 | [7] 0.078 | [8] -0.018 | [9] -0.054 | [10] 0.009

MTDH (UniProt E5RJU9)
inactive: [1] -0.281 | [2] -0.05 | [3] 0.204 | [4] -0.218 | [5] -0.243 | [6] 0.141 | [7] 0.212 | [8] -0.037 | [9] 0.104 | [10] 0.074

MRPS31 (UniProt Q92665)
inactive: [1] 0.012 | [2] 0.012 | [3] -0.02 | [4] -0.002 | [5] -0.015 | [6] -0.006 | [7] 0.033 | [8] 0.047 | [9] -0.009 | [10] 0.051

Random excerpt: 2 entries already listed
MTDH (UniProt E5RJU9)
inactive: [1] -0.281 | [2] -0.05 | [3] 0.204 | [4] -0.218 | [5] -0.243 | [6] 0.141 | [7] 0.212 | [8] -0.037 | [9] 0.104 | [10] 0.074

MTREX (UniProt P42285)
inactive: [1] -0.007 | [2] -0.014 | [3] -0.021 | [4] -0.014 | [5] -0.011 | [6] 0.034 | [7] 0.001 | [8] 0.013 | [9] 0.009 | [10] 0.036

Further records:

MTM1 (UniProt Q13496)
inactive: [1] 0.017 | [2] -0.038 | [3] 0.027 | [4] -0.06 | [5] 0.004 | [6] 0.027 | [7] -0.04 | [8] -0.064 | [9] 0.017 | [10] -0.01

MSH3 (UniProt P20585)
inactive: [1] -0.021 | [2] -0.005 | [3] -0.004 | [4] -0.018 | [5] -0.001 | [6] -0.019 | [7] 0.021 | [8] 0.019 | [9] -0.003 | [10] 0.028

MTHFD1L (UniProt B7ZM99)
inactive: [1] -0.075 | [2] -0.036 | [3] -0.036 | [4] 0.017 | [5] 0.026 | [6] -0.039 | [7] 0.002 | [8] 0.035 | [9] -0.054 | [10] 0.018

MTMR2 (UniProt Q13614)
inactive: [1] -0.022 | [2] 0 | [3] -0.05 | [4] -0.013 | [5] 0.003 | [6] 0.022 | [7] -0.035 | [8] -0.019 | [9] -0.008 | [10] -0.003

MRPS33 (UniProt Q9Y291)
inactive: [1] 0.035 | [2] -0.004 | [3] 0.1 | [4] 0.033 | [5] -0.002 | [6] -0.073 | [7] -0.063 | [8] -0.03 | [9] 0.04 | [10] -0.071

MTHFD2 (UniProt P13995)
inactive: [1] -0.005 | [2] 0.02 | [3] -0.042 | [4] -0.042 | [5] -0.006 | [6] -0.061 | [7] 0.056 | [8] 0.022 | [9] 0.019 | [10] 0.055

MTSS2 (UniProt Q765P7)
inactive: [1] -0.02 | [2] 0.014 | [3] 0.024 | [4] -0.089 | [5] -0.015 | [6] 0.057 | [7] -0.088 | [8] -0.04 | [9] -0.08 | [10] 0.07

MRPL37 (UniProt Q9BZE1)
inactive: [1] -0.031 | [2] -0.008 | [3] -0.093 | [4] -0.045 | [5] -0.019 | [6] 0.038 | [7] 0.004 | [8] 0.024 | [9] -0.031 | [10] 0.039

MRPL50 (UniProt Q8N5N7)
inactive: [1] 0.048 | [2] 0.006 | [3] -0.038 | [4] -0.11 | [5] 0.045 | [6] 0.036 | [7] 0.044 | [8] 0.004 | [9] 0.059 | [10] 0.093

MSI2 (UniProt Q96DH6)
active: [8] -0.23
inactive: [1] 0 | [2] -0.057 | [3] 0.036 | [4] 0.024 | [5] -0.052 | [6] -0.031 | [7] 0.01 | [9] -0.066 | [10] 0.07

MTHFS (UniProt P49914)
inactive: [1] 0.051 | [2] 0.016 | [3] -0.006 | [4] -0.041 | [5] -0.025 | [6] -0.042 | [7] 0.06 | [8] 0.02 | [9] 0.049 | [10] 0.034

MTX1 (UniProt Q13505)
inactive: [1] 0.001 | [2] -0.04 | [3] -0.014 | [4] -0.026 | [5] 0.01 | [6] 0.037 | [7] 0.022 | [8] -0.006 | [9] 0.018 | [10] 0.043

MTFR1 (UniProt Q15390)
inactive: [1] -0.047 | [2] 0.032 | [3] 0.009 | [4] -0.089 | [5] -0.009 | [6] -0.023 | [7] 0.017 | [8] -0.05 | [9] -0.061 | [10] 0.055

MTA3 (UniProt Q9BTC8)
inactive: [1] 0.006 | [2] 0.026 | [3] -0.058 | [4] -0.022 | [5] 0.001 | [6] -0.013 | [7] -0.008 | [8] 0.002 | [9] -0.048 | [10] 0.051

MRPL58 (UniProt Q14197)
inactive: [1] 0.035 | [2] -0.034 | [3] -0.063 | [5] -0.034 | [6] -0.009 | [7] 0.045 | [8] -0.026 | [9] -0.03 | [10] -0.119
active: [4] 0.365

MRPS7 (UniProt Q9Y2R9)
inactive: [1] 0.04 | [2] -0.07 | [3] -0.02 | [4] 0.046 | [5] 0.021 | [6] -0.046 | [7] 0.02 | [8] 0.06 | [9] -0.045 | [10] 0.011

MTMR14 (UniProt Q8NCE2)
inactive: [1] 0.013 | [2] -0.044 | [3] -0.029 | [4] -0.026 | [5] 0.017 | [6] 0.037 | [7] 0.034 | [8] 0.024 | [9] -0.12 | [10] 0.081

MRPL53 (UniProt Q96EL3)
inactive: [1] 0.022 | [2] -0.004 | [3] 0.031 | [4] 0.079 | [5] 0 | [6] -0.04 | [7] 0.016 | [8] 0.009 | [9] 0.005 | [10] 0.012

MRPL34 (UniProt Q9BQ48)
inactive: [1] -0.101 | [2] -0.097 | [3] -0.044 | [4] 0.031 | [5] 0.23 | [6] -0.013 | [7] -0.084 | [8] -0.176 | [9] -0.01 | [10] -0.029
